Experimental data taken from patent US5994055A, “HIV trans-activator Tat binding to CDK7 and activation of CTD phosphorylation” (priority 1997, dated 1999).
At least one peptide structure holds a part that was inferred or is arguable (an end, a ring closure or a residue). Where no end group is shown, it is not given here.

Protein sequences, listed by entry. Tags and fused reporters are not part of them. Lines headed by an entry give the natural chain unless they say otherwise; changes in a name come on top. Residues count along the entry.
UniProt P49336: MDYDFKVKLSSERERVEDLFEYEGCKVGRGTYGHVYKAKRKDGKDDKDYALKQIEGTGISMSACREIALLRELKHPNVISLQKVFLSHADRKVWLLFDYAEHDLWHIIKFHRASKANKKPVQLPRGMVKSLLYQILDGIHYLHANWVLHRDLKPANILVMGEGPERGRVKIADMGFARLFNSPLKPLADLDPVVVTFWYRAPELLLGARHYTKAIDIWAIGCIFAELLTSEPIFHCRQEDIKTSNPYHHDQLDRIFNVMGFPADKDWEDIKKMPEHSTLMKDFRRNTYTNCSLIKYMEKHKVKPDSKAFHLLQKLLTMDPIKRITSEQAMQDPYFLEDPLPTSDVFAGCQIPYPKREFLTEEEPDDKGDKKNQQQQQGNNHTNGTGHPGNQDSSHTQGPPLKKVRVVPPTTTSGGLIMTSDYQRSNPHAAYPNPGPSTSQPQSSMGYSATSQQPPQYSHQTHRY
UniProt P50613, 2-346: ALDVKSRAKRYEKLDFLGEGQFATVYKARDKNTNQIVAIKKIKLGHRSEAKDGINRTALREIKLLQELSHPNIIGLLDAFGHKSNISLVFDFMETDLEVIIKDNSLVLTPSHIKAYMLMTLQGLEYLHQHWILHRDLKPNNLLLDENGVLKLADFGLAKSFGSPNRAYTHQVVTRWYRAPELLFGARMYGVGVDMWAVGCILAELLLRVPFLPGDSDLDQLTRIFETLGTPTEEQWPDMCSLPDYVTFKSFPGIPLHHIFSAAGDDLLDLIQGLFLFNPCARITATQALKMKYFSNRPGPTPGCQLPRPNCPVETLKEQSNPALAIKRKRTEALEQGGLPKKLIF

Tests used:
[1] = tested on: Tat trans-activation of the HIV LTR in COS-7 cells; assay: Peptide electroporation into COS-7 cells with pHIVΔKBCAT reporter, RNase protection assay; type: cell-based
AdMLT promoter = assay: In vitro run-off transcription from the AdMLT promoter; type: biochemical; settings: increasing concentrations
CDK8/cyclin C = CDK8/cyclin C (Homo sapiens, UniProt P49336); assay: Kinase reaction: phosphorylation of the CTD by CDK8/cyclin C; type: biochemical
[2] = target: T1, recombinant CAK (CDK7, cyclin H, MAT1) (Homo sapiens, UniProt P50613); assay: Kinase reaction: phosphorylation of the CTD by recombinant CAK; type: biochemical
T1 construct: made in house; host or cells: Sf9 insect cells (baculovirus co-infection)
Description: Recombinant baculoviruses encoding human CDK7 (Fisher et al., Cell 78:713-724 (1994)), MAT1 (Fisher et al., Cell 83:47-57 (1995)), and an N-terminally 6-histidine tagged version of cyclin H (Kim et al., Cell 77:599-608 (1994)) were constructed as described. 4×10^9 Sf9 insect cells were co-infected with all three baculoviruses (multiplicity of infection for each virus: 5 pfu/cell), incubated 2 days at 28° C., and harvested by centrifugation. Cells were resuspended in 120 ml buffer A (20 mM Na phosphate, 25 mM NaCl, 1 mM PMSF, 1 Ag/ml leupeptin, 2 μg/ml aprotinin, 1 mM DTT (pH 7.4). NaCl concentration was raised to 300 mM and the lysate was clarified by centrifugation and loaded over tandem 5-ml Pharmacia HiTrap Chelating columns loaded with CoCl2 and preequilibrated with buffer B (300 mM NaCl, 20 mM Na phosphate, 10% glycerol (pH 7.2)). The column was washed with buffer B+1 mM DTT and eluted with a linear gradient of 0-200 mM imidazole in buffer B+1 mM DTT. Fractions containing the CAK trimer were pooled, diluted 4-fold in buffer C (20 mM Hepes-NaOH, 1 mM EDTA, 10% glycerol, 1 mM DTT (pH 7.4)), and loaded on a 5 ml Pharmacia HiTrap Q column pre-equilibrated with buffer C. The column was washed with buffer C and eluted with a linear gradient of 25-1000 mM NaCl in buffer C. Fractions containing the CAK trimer were pooled and subjected to gel filtration on a 125 ml Pharmacia Superdex 200 column pre-equilibrated in buffer C+150 mM NaCl. Peak fractions were concentrated by ion exchange on a 1 ml Pharmacia HiTrap Q column. The pure CAK trimer (2 mg/ml; over 99% homogeneous) was stored at -80° C.
Reactions were incubated for 1 h at 30° C.

[3] = tested on: Tat trans-activation of the HIV LTR; assay: In vitro run-off transcription from the wild-type HIV LTR; type: biochemical
Description: The ability of molecules to inhibit Tat trans-activation can be assessed using a variety of in vitro and in vivo assays. For example, Tat trans-activation can be assessed using in vitro run-off transcription reactions with transcription extracts (see, e.g., Current Protocols in Molecular Biology (Ausubel et al., eds., 1997)). In such an assay, nuclear transcription extracts are prepared from cultured mammalian cells according to standard procedures (see, e.g., Dignam et al., Nuc. Acids. Res. 11: 1475-1489 (1983)). Recombinant Tat protein is isolated according to standard procedures and added to the nuclear transcription extract along with the other components of the transcription reaction such as nucleotides (see, e.g., Cujec et al., supra; Example V). The reaction is also supplied with HIV promoter DNA sequences operably linked to a structural gene.
(§1) Run-off transcription reactions from the wild-type HIV LTR and AdMLT promoters linearized with NcoI and HindIII respectively, were carried out as described (Okamoto et al., Proc. Natl. Acad. Sci. USA 93:11575-11579 (1996); Cujec et al., Mol. Cell. Biol. 17:1817-1823 (1997)). Transcription reactions containing the DHFR promoter (500 ng) fused to a G-less cassette (linearized at Nco I) were supplemented with 3 mM (NH4)2 SO4, 2% PEG 8000, 50 units of T1 RNase (Boehringer-Mannheim), 500 U of RNase inhibitor (Boehringer-Mannheim) and contained 5 μM instead of 40 μM of unlabeled UTP. Phosphocreatine, poly (d)I-(d)C, and poly(rI-rC) were omitted from the reactions.

DHFR promoter = assay: In vitro transcription from the DHFR promoter (G-less cassette); type: biochemical; settings: peptide 130 μM
Description: as §1

ARAFGVPVRTYAHEVVTLWYRA [mC2p]
production of long transcripts from the HIV LTR ([1]; peptide 5 μM): dramatically reduced | production of long transcripts from the HIV LTR ([1]; peptide 10 μM): completely abolished | production of short transcripts ([1]; presence or absence of Tat, peptide up to 20 μM): unaffected | transcription from the AdMLT promoter (AdMLT promoter): no effect | ability of CDK8/cyclin C to phosphorylate the CTD (CDK8/cyclin C): did not affect | phosphorylation of cyclin H [2]: inhibited | Tat-independent activity of CAK ([2]; in the absence of Tat): inhibited | Tat-dependent activity of CAK ([2]; in the presence of Tat): inhibited | kinase activity of CAK ([2]; peptide 13 μM (650-fold excess), recombinant CAK 0.02 μM): abolished almost all the activity | transcription in the absence of Tat ([3]; high peptide concentrations (130 μM), no Tat): relatively unaffected | Tat trans-activation ([3]; increasing concentrations / concentration not stated): selectively inhibited | Tat trans-activation ([3]; peptide 65 μM, with recombinant Tat): inhibited Tat trans-activation to basal levels | transcription ([3]; peptide 130 μM, with recombinant Tat): completely abolished | inhibition of transcription from the DHFR promoter (DHFR promoter): completely
